Reference: patent US20180071296A1, “COMBINATION THERAPY COMPRISING AN INHIBITOR OF JAK, CDK, AND PIM” (Novartis AG, priority 2013, published 2018)
Some entries share one result that the patent states for a list of compounds.

System: JAK2V617F allele burden
Assay: JAK2V617F allele burden in PBMC (taqman) at study endpoint in mouse MPN model
Format: in vivo
Details: first experiment, FIG. 3, Compound A 60 mg/kg PO BID, Compound B 75 mg/kg PO QD, alone or combined

| Compound | reduction of JAK2V617F allele burden relative to the vehicle control |
| --- | --- |
| CN(C)C(=O)c1cc2cnc(Nc3ccc(N4CCNCC4)cn3)nc2n1C1CCCC1 [Compound B, 7-Cyclopentyl-2-(5-piperazin-1-yl-pyridin-2-ylamino)-7H-pyrrolo[2,3-d]pyrimidine-6-carboxylic acid dimethylamide] | 18-22% |
| N#CC[C@H](C1CCCC1)n1cc(-c2ncnc3[nH]ccc23)cn1 [Compound A, (3R)-3-cyclopentyl-3-[4-(7H-pyrrolo[2,3-d]pyrimidin-4-yl)pyrazol-1-yl]propanenitrile] | 18-22% |
